{"source": "patent US20140037547A1", "about": "(UNIVERSITY OF VERMONT AND STATE AGRICULTURAL COLLEGE, published 2014)", "binders": {"B1": {"name": "SW:329-358 (peptide)", "peptide": "DVSNKAYEDAEAKAKYEAEAAFFANLKLSD"}}, "target": "T1, wild-type PKG Iα (cGMP-dependent protein kinase type Iα, full length) (UniProt P00516)", "T1 sequence (looked up)": "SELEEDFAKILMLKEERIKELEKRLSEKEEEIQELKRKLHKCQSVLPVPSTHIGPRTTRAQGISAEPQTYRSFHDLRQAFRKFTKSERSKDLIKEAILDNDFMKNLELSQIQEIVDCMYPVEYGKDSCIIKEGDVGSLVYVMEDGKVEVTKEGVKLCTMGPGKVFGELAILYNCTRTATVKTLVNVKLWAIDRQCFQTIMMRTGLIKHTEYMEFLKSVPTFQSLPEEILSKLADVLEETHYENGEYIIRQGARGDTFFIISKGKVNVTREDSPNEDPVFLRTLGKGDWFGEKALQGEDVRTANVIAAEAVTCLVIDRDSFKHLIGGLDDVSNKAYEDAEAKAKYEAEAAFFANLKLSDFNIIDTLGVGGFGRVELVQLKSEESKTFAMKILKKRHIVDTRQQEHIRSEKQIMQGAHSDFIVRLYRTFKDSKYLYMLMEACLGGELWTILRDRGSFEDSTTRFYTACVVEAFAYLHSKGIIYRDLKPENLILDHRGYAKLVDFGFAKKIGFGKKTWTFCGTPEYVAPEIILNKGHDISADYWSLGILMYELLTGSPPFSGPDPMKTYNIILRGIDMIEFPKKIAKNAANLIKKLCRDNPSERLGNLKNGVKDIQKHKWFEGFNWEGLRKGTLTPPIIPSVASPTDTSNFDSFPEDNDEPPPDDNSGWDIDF", "experiment": "surface plasmon resonance", "note": "These are yes or no findings as the source states them, for the method shown. Some entries that bind do so weakly or less than the wild type."}
{"binder": "B1", "values": [{"measurement": "binding", "value": "binds"}]}
